Structures can show the parent of a compound that is named as a salt. This is one part of the list. The calls rarely recur for the same compound in another form.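 Kinases were expressed as nanoluciferase fusions in K562 cells and luminescence was read every 4 h between 2 and 18 h as percent of control, DMSO set to 100% and a positive control to 0%. A time point counts as decreased when the signal drops significantly (2 sigma). The hit call is the authors' own, does not follow from the count of time points alone, and its rule is not shown.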
Legend:
Experiment in all cases: number of time points (of 5) at which kinase-Nluc abundance scored as decreased, DMSO-normalised (count); higher = more persistent destabilization
Details in all cases: K562; 2-18 h
LMTK2 = LMTK2 (UniProt Q8IWU2)
LYN = LYN (UniProt P07948)
MAP2K1 = MAP2K1 (UniProt Q02750)
MAP2K2 = MAP2K2 (UniProt P36507)
MAP4K2 = MAP4K2 (UniProt Q12851)
MAPK1 = MAPK1 (UniProt P28482)
MAPK4 = MAPK4 (UniProt P31152)
MAPKAPK2 = MAPKAPK2 (UniProt P49137)
MKNK1 = MKNK1 (UniProt Q9BUB5)
NTRK2 = NTRK2 (UniProt Q16620)

Amino acid sequences for entries named in this document (tags omitted). A change or cut given only in a name is not applied to a line headed by its entry.
UniProt Q8IWU2: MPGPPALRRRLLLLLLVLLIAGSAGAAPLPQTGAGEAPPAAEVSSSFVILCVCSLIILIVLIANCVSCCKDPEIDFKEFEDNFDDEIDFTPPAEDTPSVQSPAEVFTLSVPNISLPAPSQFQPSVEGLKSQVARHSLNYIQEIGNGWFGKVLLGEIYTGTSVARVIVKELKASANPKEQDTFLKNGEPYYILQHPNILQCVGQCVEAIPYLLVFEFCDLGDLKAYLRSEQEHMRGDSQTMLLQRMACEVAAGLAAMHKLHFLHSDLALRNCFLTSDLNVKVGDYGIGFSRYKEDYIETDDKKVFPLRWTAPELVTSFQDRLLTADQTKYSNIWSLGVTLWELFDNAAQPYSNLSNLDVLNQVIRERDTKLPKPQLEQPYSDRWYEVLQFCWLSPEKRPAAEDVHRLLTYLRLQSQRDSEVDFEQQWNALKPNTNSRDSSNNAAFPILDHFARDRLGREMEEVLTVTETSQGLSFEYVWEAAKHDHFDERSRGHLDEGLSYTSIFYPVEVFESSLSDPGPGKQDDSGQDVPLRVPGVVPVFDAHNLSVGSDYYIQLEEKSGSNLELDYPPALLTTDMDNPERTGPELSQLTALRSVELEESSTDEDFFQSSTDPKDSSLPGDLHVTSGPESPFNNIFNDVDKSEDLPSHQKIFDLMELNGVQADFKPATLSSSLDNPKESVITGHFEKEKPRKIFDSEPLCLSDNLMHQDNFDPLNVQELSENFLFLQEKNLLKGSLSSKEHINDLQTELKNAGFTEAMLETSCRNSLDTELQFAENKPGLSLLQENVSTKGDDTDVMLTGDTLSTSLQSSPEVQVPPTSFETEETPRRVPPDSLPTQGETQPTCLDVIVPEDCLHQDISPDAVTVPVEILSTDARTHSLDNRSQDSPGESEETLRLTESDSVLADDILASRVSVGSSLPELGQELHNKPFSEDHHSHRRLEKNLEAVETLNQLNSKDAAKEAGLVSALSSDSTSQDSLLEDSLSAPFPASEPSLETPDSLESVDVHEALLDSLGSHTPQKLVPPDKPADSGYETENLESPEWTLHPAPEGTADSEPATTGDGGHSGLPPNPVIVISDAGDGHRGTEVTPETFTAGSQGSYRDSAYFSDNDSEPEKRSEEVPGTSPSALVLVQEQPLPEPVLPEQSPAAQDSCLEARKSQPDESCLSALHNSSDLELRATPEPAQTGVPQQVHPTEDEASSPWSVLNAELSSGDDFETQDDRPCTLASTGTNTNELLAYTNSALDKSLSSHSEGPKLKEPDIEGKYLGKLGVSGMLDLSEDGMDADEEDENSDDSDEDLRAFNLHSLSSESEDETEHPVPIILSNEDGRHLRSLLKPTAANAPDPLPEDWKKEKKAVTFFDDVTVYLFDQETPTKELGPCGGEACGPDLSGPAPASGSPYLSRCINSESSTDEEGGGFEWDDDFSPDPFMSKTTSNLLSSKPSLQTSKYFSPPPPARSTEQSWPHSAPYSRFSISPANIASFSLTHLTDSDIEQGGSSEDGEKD
UniProt P07948: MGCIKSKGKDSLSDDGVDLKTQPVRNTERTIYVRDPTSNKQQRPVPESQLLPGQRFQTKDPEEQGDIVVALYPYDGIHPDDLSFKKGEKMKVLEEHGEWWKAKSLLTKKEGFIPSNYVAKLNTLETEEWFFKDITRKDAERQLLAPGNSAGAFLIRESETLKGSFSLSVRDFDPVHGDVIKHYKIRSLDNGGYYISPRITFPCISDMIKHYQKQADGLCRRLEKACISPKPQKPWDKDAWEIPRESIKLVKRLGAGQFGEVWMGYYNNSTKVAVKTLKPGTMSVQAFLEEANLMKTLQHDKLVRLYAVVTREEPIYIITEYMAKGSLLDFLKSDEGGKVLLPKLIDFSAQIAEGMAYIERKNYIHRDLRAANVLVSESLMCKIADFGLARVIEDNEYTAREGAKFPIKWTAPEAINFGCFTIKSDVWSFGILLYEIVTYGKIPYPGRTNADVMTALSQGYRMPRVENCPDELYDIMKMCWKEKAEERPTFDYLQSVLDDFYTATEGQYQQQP
UniProt Q12851: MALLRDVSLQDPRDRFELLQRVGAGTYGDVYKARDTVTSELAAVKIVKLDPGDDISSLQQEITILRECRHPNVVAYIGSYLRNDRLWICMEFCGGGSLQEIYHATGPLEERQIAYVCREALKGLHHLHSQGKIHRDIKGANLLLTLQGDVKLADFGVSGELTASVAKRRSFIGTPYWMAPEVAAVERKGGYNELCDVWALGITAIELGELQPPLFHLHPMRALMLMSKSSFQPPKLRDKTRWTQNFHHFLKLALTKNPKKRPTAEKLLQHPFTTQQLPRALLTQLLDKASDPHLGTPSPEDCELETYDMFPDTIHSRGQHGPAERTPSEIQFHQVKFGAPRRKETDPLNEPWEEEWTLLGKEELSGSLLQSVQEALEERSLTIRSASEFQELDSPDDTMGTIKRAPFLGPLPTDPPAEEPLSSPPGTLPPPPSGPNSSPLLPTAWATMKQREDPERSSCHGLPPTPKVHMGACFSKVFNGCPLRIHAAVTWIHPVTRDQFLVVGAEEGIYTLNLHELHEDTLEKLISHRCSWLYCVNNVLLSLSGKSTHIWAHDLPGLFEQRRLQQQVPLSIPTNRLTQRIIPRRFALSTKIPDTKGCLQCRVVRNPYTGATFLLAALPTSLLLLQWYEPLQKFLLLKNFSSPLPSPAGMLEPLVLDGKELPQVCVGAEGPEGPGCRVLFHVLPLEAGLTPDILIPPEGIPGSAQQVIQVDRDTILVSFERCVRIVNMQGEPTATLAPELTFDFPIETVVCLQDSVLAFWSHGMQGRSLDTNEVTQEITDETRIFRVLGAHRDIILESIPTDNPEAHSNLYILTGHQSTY
UniProt P28482, whole entry: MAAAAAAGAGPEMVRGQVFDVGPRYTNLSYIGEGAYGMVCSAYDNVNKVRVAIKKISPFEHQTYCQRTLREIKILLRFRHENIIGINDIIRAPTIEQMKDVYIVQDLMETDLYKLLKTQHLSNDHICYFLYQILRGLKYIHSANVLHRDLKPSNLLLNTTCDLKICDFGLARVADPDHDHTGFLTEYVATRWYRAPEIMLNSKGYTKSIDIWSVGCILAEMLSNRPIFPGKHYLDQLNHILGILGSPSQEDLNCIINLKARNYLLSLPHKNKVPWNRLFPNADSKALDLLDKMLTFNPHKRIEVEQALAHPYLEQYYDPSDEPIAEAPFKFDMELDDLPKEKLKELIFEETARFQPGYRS
UniProt P31152, whole entry: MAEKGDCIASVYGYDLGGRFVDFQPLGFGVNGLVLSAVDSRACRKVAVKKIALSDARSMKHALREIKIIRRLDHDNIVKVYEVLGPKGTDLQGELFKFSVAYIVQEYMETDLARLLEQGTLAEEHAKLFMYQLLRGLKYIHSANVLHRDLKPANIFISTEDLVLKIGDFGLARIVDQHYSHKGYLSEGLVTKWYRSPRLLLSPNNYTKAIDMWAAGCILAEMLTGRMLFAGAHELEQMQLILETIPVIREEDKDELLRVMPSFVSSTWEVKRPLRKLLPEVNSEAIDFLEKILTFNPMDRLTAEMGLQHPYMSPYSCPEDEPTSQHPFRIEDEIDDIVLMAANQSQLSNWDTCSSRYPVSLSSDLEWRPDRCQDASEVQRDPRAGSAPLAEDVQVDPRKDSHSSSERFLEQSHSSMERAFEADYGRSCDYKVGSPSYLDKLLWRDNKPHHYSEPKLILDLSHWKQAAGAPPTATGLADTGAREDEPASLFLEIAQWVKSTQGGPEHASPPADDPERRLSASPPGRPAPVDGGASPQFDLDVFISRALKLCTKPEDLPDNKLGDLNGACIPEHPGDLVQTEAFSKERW
UniProt P49137, whole entry, looked up: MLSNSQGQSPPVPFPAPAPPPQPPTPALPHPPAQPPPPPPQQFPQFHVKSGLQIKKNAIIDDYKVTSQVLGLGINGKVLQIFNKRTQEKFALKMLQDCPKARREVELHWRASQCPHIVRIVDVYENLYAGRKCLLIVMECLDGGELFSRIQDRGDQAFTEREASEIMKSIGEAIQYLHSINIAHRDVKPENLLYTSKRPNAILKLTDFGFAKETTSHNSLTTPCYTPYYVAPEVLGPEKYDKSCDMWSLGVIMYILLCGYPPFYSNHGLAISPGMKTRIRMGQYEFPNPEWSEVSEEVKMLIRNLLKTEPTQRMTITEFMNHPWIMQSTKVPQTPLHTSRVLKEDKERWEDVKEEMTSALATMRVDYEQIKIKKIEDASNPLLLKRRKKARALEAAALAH
UniProt Q9BUB5: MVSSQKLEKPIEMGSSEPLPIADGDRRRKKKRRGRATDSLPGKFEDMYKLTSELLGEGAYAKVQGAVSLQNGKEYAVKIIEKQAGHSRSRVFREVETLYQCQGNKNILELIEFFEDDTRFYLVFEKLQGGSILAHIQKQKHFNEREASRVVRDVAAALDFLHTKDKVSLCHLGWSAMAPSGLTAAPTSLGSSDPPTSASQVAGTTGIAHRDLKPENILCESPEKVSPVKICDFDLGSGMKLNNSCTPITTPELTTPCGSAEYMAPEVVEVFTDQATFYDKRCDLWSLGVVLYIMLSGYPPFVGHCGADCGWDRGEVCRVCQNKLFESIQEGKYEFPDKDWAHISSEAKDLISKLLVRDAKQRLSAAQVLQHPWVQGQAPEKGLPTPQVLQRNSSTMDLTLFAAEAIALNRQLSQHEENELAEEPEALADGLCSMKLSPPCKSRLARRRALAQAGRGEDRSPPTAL
UniProt Q16620, whole entry, looked up: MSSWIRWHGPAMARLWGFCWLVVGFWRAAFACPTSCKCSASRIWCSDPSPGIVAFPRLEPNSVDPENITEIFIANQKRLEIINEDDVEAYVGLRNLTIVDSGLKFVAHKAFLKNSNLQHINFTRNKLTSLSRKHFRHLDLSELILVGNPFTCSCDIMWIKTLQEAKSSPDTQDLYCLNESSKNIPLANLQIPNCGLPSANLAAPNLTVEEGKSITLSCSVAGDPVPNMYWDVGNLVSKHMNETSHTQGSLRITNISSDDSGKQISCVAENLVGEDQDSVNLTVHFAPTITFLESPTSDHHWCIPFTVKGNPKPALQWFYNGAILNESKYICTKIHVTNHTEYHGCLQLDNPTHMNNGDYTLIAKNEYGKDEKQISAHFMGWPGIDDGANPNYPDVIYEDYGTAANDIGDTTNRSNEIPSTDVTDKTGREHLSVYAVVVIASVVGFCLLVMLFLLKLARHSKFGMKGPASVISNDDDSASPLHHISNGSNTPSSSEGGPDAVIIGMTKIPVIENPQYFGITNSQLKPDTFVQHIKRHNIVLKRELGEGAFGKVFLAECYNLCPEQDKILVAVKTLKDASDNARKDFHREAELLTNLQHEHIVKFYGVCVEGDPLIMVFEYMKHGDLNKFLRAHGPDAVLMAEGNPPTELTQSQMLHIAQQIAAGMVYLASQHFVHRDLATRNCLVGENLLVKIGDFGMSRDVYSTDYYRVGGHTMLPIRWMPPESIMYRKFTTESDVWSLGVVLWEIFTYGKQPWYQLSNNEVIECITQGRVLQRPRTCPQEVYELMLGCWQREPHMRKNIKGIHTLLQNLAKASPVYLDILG

Measured: number of time points

COc1cc(Nc2ncc(F)c(Nc3ccc4c(n3)N(COP(=O)(O)O)C(=O)C(C)(C)O4)n2)cc(OC)c1OC [Fostamatinib (disodium hexahydrate)] (10 µM)
0: all assays above

O=C(N/N=C/c1coc2ccccc2c1=O)c1cccnc1 (10 µM)
0: all assays above

CCN1CCN(Cc2ccc(Nc3ncc(F)c(-c4cc(F)c5nc(C)n(C(C)C)c5c4)n3)nc2)CC1 [Abemaciclib] (2 µM)
0: all assays above

N#Cc1c(C2CCNCC2)cc(-c2c(O)cccc2OCC2CC2)nc1N [ACHP (Hydrochloride)] (10 µM)
0: all assays above

CN(C)CCCOc1ccc(-c2ccc3ncc4c(c3c2)n(C2CCOCC2)c(=O)n4C)cn1 (2 µM)
0: all assays above

CN(C)C(=O)Cn1cc(-c2ccc(-c3cncc4ccccc34)cc2)cn1 (10 µM)
0: all assays above

O=C1Nc2ccc(C(=O)c3ccco3)cc2C1=Cc1cc(Cl)c(O)c(Cl)c1 (2.5 µM)
0: all assays above

CC1CCc2c(cc(Br)c(F)c2Br)N1C=O (stereo not given) (10 µM)
0: all assays above

C=CC(=O)Nc1cccc(Nc2nc(Nc3ccc(N4CCN(C(C)=O)CC4)cc3OC)ncc2C(F)(F)F)c1 [Rociletinib] (10 µM)
0: all assays above

O=C1NC(=O)/C(=C/c2ccc3nccnc3c2)S1 (10 µM)
0: all assays above

C[C@@H]1CCN(C(=O)CC#N)C[C@@H]1N(C)c1ncnc2[nH]ccc12 [Tofacitinib] (10 µM)
2: LMTK2
0: all other assays above

O=C(NCCN1CCOCC1)c1cc2c(Oc3ccc(NC(=O)C4(C(=O)Nc5ccc(F)cc5)CC4)cc3)ccnc2[nH]1 [Tyrosine kinase inhibitor] (10 µM)
0: all assays above

Cc1cc(CN2CCN(c3c(Br)cnc4nc(-c5ccc(N6CCN(C)CC6)cc5)[nH]c34)CC2)no1 (2.5 µM)
0: all assays above

Nc1ncnc2c1c(-c1ccc(Oc3ccccc3)cc1)nn2C1CCCC1 (2.5 µM)
0: all assays above

CC1=C(C(=O)O)N2C(=O)[C@@H](NC(=O)[C@H](N)C3=CCC=CC3)[C@H]2SC1 [Cephradine] (10 µM)
0: all assays above

c1ccc(-c2[nH]ncc2-c2ccnc3ccccc23)nc1 (10 µM)
0: all assays above

COc1cc(/C=C/C(=O)NCC(O)c2ccc(O)cc2)ccc1O (stereo not given) [N-Feruloyloctopamine] (2.5 µM)
0: all assays above

c1cncc(CN2CCC(n3ncc4c(N5CCOCC5)nc(-c5ccc6[nH]ccc6c5)nc43)CC2)c1 (10 µM)
3: NTRK2
1: LYN | MKNK1
0: all other assays above

O=C(NOCC(O)CO)c1cc(Br)c(F)c(F)c1Nc1ccc(I)cc1F (stereo not given) (2.5 µM)
0: all assays above

CCOC(=O)N1CCN(C(=O)[C@H](Cc2cccc(C(=N)N)c2)NS(=O)(=O)c2c(C(C)C)cc(C(C)C)cc2C(C)C)CC1 (10 µM)
0: all assays above

Cn1cc(-c2ccc3nnc(Sc4ccc5ncccc5c4)n3n2)cn1 (10 µM)
0: all assays above

CN1CCC(c2cc(-c3ccncc3)c(-c3ccc(F)cc3)[nH]2)CC1 (10 µM)
0: all assays above

C[C@@H]1CC[C@@H](Nc2nc(NC(C)(C)C)ncc2C(N)=O)C[C@H]1O (10 µM)
0: all assays above

CN(C)CCSSCCNC(=O)C1CCN(C(=O)CSc2ccc(Cl)cc2)CC1 (10 µM)
0: all assays above

Cc1ccccc1-c1c2nccc(-c3ccc(F)cc3F)c2cc[n+]1[O-] (10 µM)
0: all assays above

CC#CC(=O)N1CC[C@@H](n2c(=O)n(-c3ccc(Oc4ccccc4)cc3)c3c(N)ncnc32)C1 [Tirabrutinib (hydrochloride)] (10 µM)
0: all assays above

C[C@H](c1ccnc(Nc2nc3ccc(-c4cc(N(C)C)ncn4)cc3[nH]2)c1)N1CCN(C(=O)CC(F)(F)F)CC1 (2.5 µM)
0: all assays above

O=C([O-])c1cc2ccccc2c(Cc2c(O)c(C(=O)[O-])cc3ccccc23)c1O.[Na+].[Na+] [Pamoic acid (disodium)] (10 µM)
0: all assays above

CCS(=O)(=O)Nc1ccc2[nH]c(O)c(C(=Nc3ccc(CN4CCCCC4)cc3)c3ccccc3)c2c1 [Hesperadin] (2.5 µM)
1: MKNK1 | NTRK2
3: LMTK2
0: all other assays above

Oc1cc2c(cc1O)C(Cc1cccc3ccccc13)NCC2 (stereo not given) (10 µM)
0: all assays above

CCCS(=O)(=O)Nc1ccc(F)c(C(=O)c2c[nH]c3ncc(-c4ccc(Cl)cc4)cc23)c1F [Vemurafenib] (10 µM)
0: all assays above

C=C1C(=O)O[C@H]2C[C@H](C)C(/C=C/C(C)=O)=CC[C@H]12 [Xanthatin] (2.5 µM)
0: all assays above

CNc1nc(Nc2ccc(C(=O)N3CCOCC3)cc2OC)nc2[nH]cc(Cl)c12 (2.5 µM)
0: all assays above

C=CC(=O)Nc1cccc(Nc2nc(Nc3ccc(N4CCN(C(C)=O)CC4)cc3OC)ncc2C(F)(F)F)c1 [Rociletinib hydrobromide] (10 µM)
0: all assays above

CNC(=O)c1cc(COc2nnc(Nc3ccc(Cl)cc3)c3ccoc23)ccn1 [Telatinib] (10 µM)
0: all assays above

O=c1cc(CN2CCOCC2)occ1OCCCCCSc1ccnc2cc(C(F)(F)F)ccc12 (10 µM)
0: all assays above

COc1cccc(OC)c1C(=O)OCc1cc(O)ccc1O[C@@H]1O[C@H](CO)[C@@H](O)[C@H](O)[C@H]1O [Curculigoside] (10 µM)
0: all assays above

COc1ccccc1-c1cc(Nc2cccc(CS(N)(=O)=O)c2)ncn1 (10 µM)
3: LMTK2
2: NTRK2
0: all other assays above

Cc1ccc(OCCSc2ncccn2)c(Br)c1 [ZLN024 (hydrochloride)] (10 µM)
0: all assays above

COc1ccc(-c2ccc3c(N4CCOCC4)nc(N4C[C@@H](C)O[C@@H](C)C4)nc3n2)cc1CO (2.5 µM)
0: all assays above

O=c1[nH]c(=O)n([C@@H]2O[C@H](CO)[C@@H](O)[C@@H]2O)cc1/C=C/Br [Sorivudine] (10 µM)
0: all assays above

CNC(=O)c1c(F)cccc1Nc1nc(Nc2cc3c(cc2OC)CCN3C(=O)CN(C)C)nc2[nH]ccc12 (10 µM)
0: all assays above

Cc1[nH]c(/C=C2\C(=O)Nc3ccccc32)c(C)c1CCC(=O)O [(Z)-Orantinib] (10 µM)
0: all assays above

Cc1c(NC(=O)c2cccn(-c3ccc(F)cc3)c2=O)ccc(Oc2ccnc(NC(=O)C3CC3)c2)c1C (2 µM)
3: MKNK1
0: all other assays above

O=C(CSC1=NCCN1)NC1CCCCCC1 [ICCB-19 (hydrochloride)] (2.5 µM)
0: all assays above

O=C(O)CCC(=O)Nc1ccc(Br)cn1 [Bikinin] (10 µM)
0: all assays above

CCc1cc2c(cc1N1CCC(N3CCOCC3)CC1)C(C)(C)c1[nH]c3cc(C#N)ccc3c1C2=O [Alectinib (Hydrochloride)] (2 µM)
0: all assays above

CC(C)(C)c1cc(O)ccc1O (10 µM)
0: all assays above

FC(F)(F)c1ccc(CNc2ccc(Cc3c[nH]c4ncccc34)cn2)cc1 (10 µM)
0: all assays above

C[C@@H](c1ccc(F)cc1)n1nnc2cnc3ccc(-c4ccc5ocnc5c4)cc3c21 (10 µM)
0: all assays above

NCCNS(=O)(=O)c1cccc2c(Cl)cccc12 [A-3 (hydrochloride)] (10 µM)
0: all assays above

CCc1cc2c(cc1N1CCC(N3CCOCC3)CC1)C(C)(C)c1[nH]c3cc(C#N)ccc3c1C2=O [Alectinib] (10 µM)
0: all assays above

COc1ncc(Cl)cc1S(=O)(=O)Nc1ccc(F)c(C#Cc2cnc(N)nc2)c1F (2.5 µM)
0: all assays above

OCCn1cc(-c2ccc3c(c2)CC/C3=N\O)c(-c2ccncc2)n1 (10 µM)
0: all assays above

CCC(C)N1c2ccccc2C(=O)N(C)c2cnc(Nc3ccc(C(=O)N4CCC(N5CCN(C)CC5)CC4)cc3OC)nc21 (stereo not given) (2.5 µM)
0: all assays above

Cc1cccc(-c2[nH]ncc2-c2ccc(F)c(-c3cnn(CCO)c3)c2)n1 (10 µM)
0: all assays above

CC(C)(O)CNc1ncc(-c2ccnc(Nc3ccnc(Cl)c3)n2)c(CC2CC2)n1 (2.5 µM)
0: all assays above

CC1(C)C(O[C@@H]2OC[C@@H](O)[C@H](O)[C@H]2O)CC[C@]23CC24CC[C@]2(C)[C@@H]([C@@]5(C)CC[C@@H](C(C)(C)O)O5)[C@H](O)C[C@@]2(C)C4C[C@@H](O[C@@H]2O[C@H](CO)[C@@H](O)[C@H](O)[C@H]2O)C13 (stereo not given in full) [Astragaloside IV] (10 µM)
0: all assays above

COc1cc2nccc(Oc3ccc(NC(=O)NC4CC4)c(Cl)c3)c2cc1C(N)=O [Lenvatinib] (10 µM)
0: all assays above

Cc1c(-c2c(F)cc(C(N)=O)c3[nH]c4c(c23)CC[C@H](C(C)(C)O)C4)cccc1-n1c(=O)c2cccc(F)c2n(C)c1=O (2.5 µM)
0: all assays above

COc1cc(Nc2ncc(F)c(Nc3ccc4c(n3)NC(=O)C(C)(C)O4)n2)cc(OC)c1OC (10 µM)
0: all assays above

CNC(=O)c1ccc(C)c(-n2c(C)cc(OCc3ccc(F)cc3F)c(Br)c2=O)c1 (10 µM)
0: all assays above

6 records picked at random from those above:
C[C@@H](c1ccc(F)cc1)n1nnc2cnc3ccc(-c4ccc5ocnc5c4)cc3c21 (10 µM)
0: all assays above

c1cncc(CN2CCC(n3ncc4c(N5CCOCC5)nc(-c5ccc6[nH]ccc6c5)nc43)CC2)c1 (10 µM)
3: NTRK2
1: LYN | MKNK1
0: all other assays above

Nc1ncnc2c1c(-c1ccc(Oc3ccccc3)cc1)nn2C1CCCC1 (2.5 µM)
0: all assays above

Cn1cc(-c2ccc3nnc(Sc4ccc5ncccc5c4)n3n2)cn1 (10 µM)
0: all assays above

Cc1[nH]c(/C=C2\C(=O)Nc3ccccc32)c(C)c1CCC(=O)O [(Z)-Orantinib] (10 µM)
0: all assays above

c1ccc(-c2[nH]ncc2-c2ccnc3ccccc23)nc1 (10 µM)
0: all assays above

Next entries

CC#CC(=O)N1CC[C@@H](n2c(=O)n(-c3ccc(Oc4ccccc4)cc3)c3c(N)ncnc32)C1 [Tirabrutinib] (10 µM)
0: all assays above

Cc1nc(-c2cn3c(n2)-c2ccc(-c4cnn(C(C)(C)C(N)=O)c4)cc2OCC3)n(C(C)C)n1 [Taselisib] (10 µM)
0: all assays above

C[C@@H](c1ccc(-c2ccccc2)c(F)c1)c1cc(NC(=N)N2CCOCC2)on1 [Rimacalib] (10 µM)
0: all assays above

COc1cc2c(cc1OC)CN(S(=O)(=O)c1ccc(OC)c(N3CCN(C(=O)c4ccc(F)cc4C(F)(F)F)CC3)c1)CC2 (10 µM)
0: all assays above

Cn1cnc2c(F)c(Nc3ccc(Br)cc3Cl)c(C(=O)NOCCO)cc21 [Selumetinib (sulfate)] (10 µM)
0: all assays above

S=C(SSC(=S)N1CCOCC1)N1CCOCC1 (10 µM)
3: LMTK2
1: MAPKAPK2
0: all other assays above

C=CC(=O)Nc1cc(C)ccc1Nc1nc(Nc2cc(OC)ncc2C)ncc1C(F)(F)F (10 µM)
0: all assays above

Nc1nc(F)nc2c1ncn2[C@@H]1O[C@H](CO)[C@@H](O)[C@@H]1O [Fludarabine] (10 µM)
0: all assays above

C[C@@]1(c2ncncc2F)NC(=O)c2cc(-c3cn[nH]c3)ccc21 (10 µM)
0: all assays above

CN(CC(=O)N(Cc1ccc(C2CCCCC2)cc1)c1ccc(C(=O)NO)cc1)S(=O)(=O)c1c(F)c(F)c(F)c(F)c1F (2.5 µM)
0: all assays above

Cn1cnc(Cn2ccc3ccc(CNCc4[nH]c5ccccc5c4[C@H]4NC(=O)c5ccc(O)cc54)cc32)c1 (10 µM)
0: all assays above
